{"source": "patent US20260216063A1", "about": "“METHODS OF SUPPRESSING FREE DNA AND COMPOSITIONS THEREOF” (PS Therapy, Inc., priority 2023, published 2026)", "test_system": "free DNA", "test": "Free DNA binding, ethidium bromide displacement assay", "conditions": "incubated with free DNA in a petri dish", "protocol": "Voriconazole, moxifloxacin, composition A from Table 1, above, a combination of voriconazole and composition A and a combination of moxifloxacin and composition A were each individually incubated with free DNA in a petri dish with and without the addition of voriconazole or moxifloxacin. The percentage of free DNA bound was measured using an ethidium bromide displacement assay. See results in FIG. 1.\nCompositions #1-3 from Table 1, above, were each individually incubated with free DNA in a petri dish at concentrations of 1% and 10% in PBS buffer. The percentage of free DNA bound was measured using an ethidium bromide displacement assay.", "note": "At least one compound was matched to its structure with a doubt left.", "data": [{"smiles": "COc1c(N2C[C@@H]3CCCN[C@@H]3C2)c(F)cc2c(=O)c(C(=O)O)cn(C3CC3)c12", "note": "[moxifloxacin]", "values": [{"measurement": "percentage of free DNA bound", "value": 0, "unit": "%"}]}]}
